Results published in US8597646B2, “Methods and compositons featuring TGF-beta antagonists for the treatment of marfan syndrome and associated disorders” (The Johns Hopkins University, priority 2005, dated 2013).
Some entries share one result that the patent states for a list of compounds.

Assay: Hemodynamic effects of titrated doses in vivo
Set-up: species or system mouse
Details: doses titrated to comparable hemodynamic effects

With CCCCc1nc(Cl)c(CO)n1Cc1ccc(-c2ccccc2-c2nnn[nH]2)cc1.[K] [losartan, 2-butyl-4-chloro-1-[p-(o-1H-tetrazol-5-ylphenyl)benzyl]imidazole-5-methanol monopotassium salt] the “Decrease in blood pressure” value was 10 to 20% and the “Decrease in heart rate” value was 15 to 20%.
With CC(C)NCC(O)COc1cccc2ccccc12 (stereo not shown) [propranolol] the “Decrease in blood pressure” value was 10 to 20% and the “Decrease in heart rate” value was 15 to 20%.
